From article PMC3817735 come the findings set out here.

The exact form of at least one protein or probe is not confirmed. Where cells or extracts were used, other partners may take part. Weaker means in comparison with the reference protein, sequence or condition of that experiment.

This series deals with Stat5 (tyrosine-phosphorylated, Prl-activated). Kind of series: EMSA. Conditions: 20 mM HEPES, 1 mM EDTA, 20 mM KCl, 1 mM DTT, 2 mM MgCl2, pH not stated, room temperature 30 min, 3-4 ug whole-cell extract, native 4% TBE-PAGE, protein in an extract, label: 32P. For orientation: Mobility shift assays separate free from complexed probe on a gel.

In the case of “TTCTTGGAATTGAAGGGACTT (double strand) [beta-casein promoter Stat5 response element]”, the binding result (5 ug recombinant S5-DBD-PA added in vitro to 10 ug Prl-stimulated lysate, 2 h) is “binds more weakly”; the binding result (Prl-stimulated lysate, supershift with anti-Stat5) is “binds”; the binding result (cells pretreated with recombinant S5-DBD-PA (1 and 2 uM, 4 h) before Prl, dose-dependent reduction) was “binds more weakly”; the binding result (intracellular lentiviral expression of S5-DBD-PA, Prl-stimulated) is on record as “binds more weakly”.
